The record followed here is paper PMC7819943, “Rice protein-binding microarrays: a tool to detect cis-acting elements near promoter regions in rice”.

Protein sequences, listed by entry. Tags and fused reporters are not part of them.
UniProt Q0JBA9, entry or part of it: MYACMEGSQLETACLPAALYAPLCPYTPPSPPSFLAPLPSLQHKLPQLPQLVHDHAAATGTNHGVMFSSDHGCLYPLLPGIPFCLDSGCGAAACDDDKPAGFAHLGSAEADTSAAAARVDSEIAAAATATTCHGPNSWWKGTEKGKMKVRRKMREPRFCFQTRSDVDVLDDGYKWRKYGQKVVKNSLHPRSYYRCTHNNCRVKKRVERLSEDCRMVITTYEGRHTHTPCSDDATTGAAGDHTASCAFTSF

Some of the results follow.

For the experiment, the target named is OsWRKY34 (Oryza sativa, UniProt Q0JBA9 1-250). Put plainly: protein-binding microarray (RPBM); PBS, 2% BSA, 51.3 ng/ul salmon testes DNA, 50 uM zinc acetate, 200 nM TF, 25 C, 1 h; high values mean tight binding. The note with it: protein: recombinant; tags: N-terminal polyhistidine and DsRed monomer fusion (pET32a); label: CyDye5-dUTP incorporated in the synthesized complementary strand; 3' TTTTT single-stranded linker to array surface; dsDNA, one strand shown. Put shortly: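 Transcription factors were made in E. coli BL21-CodonPlus as N-terminal fusions to a polyhistidine tag and DsRed, then purified on Ni–NTA. After primer extension with Cy5-dUTP and blocking with 2% BSA, a custom Agilent array was exposed for 1 h at 25 °C to 200 nM protein in PBS, 2% BSA, salmon testes DNA and 50 µM zinc acetate. Washed arrays were scanned on an Axon 4000B, and the binding signal is per-feature fluorescence intensity in arbitrary units.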
Take “GGGTTCTCCTCCGAGGCGCCACACGTCATGCTTCTCCTCTCGGAGTCACCTAGTGCAG”: the binding signal was 8620 fluorescence intensity (a.u.).

With “GAAACTTCATTTAGATATCGCTTTTCCTGCTTGGTTCGTTCGGAGTCACCTAGTGCAG”, the binding signal is 12700 fluorescence intensity (a.u.).

Regarding “GGGGCATATTTTGCATGATTTTAAACATTGAAGGGGTAGACGGAGTCACCTAGTGCAG”, the binding signal is 15100 fluorescence intensity (a.u.).

For “TCTTGATCACTTGCTACCTCACTACTGCGATTTGCCAACACGGAGTCACCTAGTGCAG”, the binding signal was 10500 fluorescence intensity (a.u.).

Regarding “TACGTTAGGTTGTGTTCCATCCTTATTTTATTTTTTTTATCGGAGTCACCTAGTGCAG”, the binding signal was 10100 fluorescence intensity (a.u.).

With “TCCCACATGCTGAGTCAGCTCGTCAACCGGGTCAATGACGCGGAGTCACCTAGTGCAG”, the binding signal is 9090 fluorescence intensity (a.u.).

As for “GTGCCCTCTTCCAATCCCGCCACTGAAACAGGCCCGCGGCCGGAGTCACCTAGTGCAG”, the binding signal was 9950 fluorescence intensity (a.u.).

Take “GTTTGTTTTCCTGTGGAATGGATGGCCAAGGAAATTTTCCCGGAGTCACCTAGTGCAG”: the binding signal was 9520 fluorescence intensity (a.u.).

Turning to “ACTCGAGCCCACTCCAACTCCACTCCACTACGCCGATCGTCGGAGTCACCTAGTGCAG”, the binding signal was 9170 fluorescence intensity (a.u.).

“ACACAACTTGTTAATTTGACCTGTAGCCCCATCATGTACACGGAGTCACCTAGTGCAG”: the binding signal is 8270 fluorescence intensity (a.u.).

For the sequence “ATTTTCAGTTTACTAATGTATGTCTAGTAAAGTTGTTGACCGGAGTCACCTAGTGCAG”, the binding signal was 8620 fluorescence intensity (a.u.).

For “CATGTTGGTTGCTTGCTTGCTACTAGTAGCTGCCGCTCACCGGAGTCACCTAGTGCAG”, the binding signal was 9340 fluorescence intensity (a.u.).

As for “CGTCGATGCCAATACAATAACCATCATCATCATCATCATTCGGAGTCACCTAGTGCAG”, the binding signal is 8210 fluorescence intensity (a.u.).

For “CATCGAAGAATTGAAAATGTGGTTTGGGGTGGTTTATTGTCGGAGTCACCTAGTGCAG”, the binding signal is 12000 fluorescence intensity (a.u.).

With “CTTTTTAATTTTCTATCCTTTTTGCACATCTATATACTACCGGAGTCACCTAGTGCAG”, the binding signal was 10200 fluorescence intensity (a.u.).

Turning to “TGTGAGATTCTATGCGTGTTCGTTGCCTGTTCATAGTCCACGGAGTCACCTAGTGCAG”, the binding signal is 8420 fluorescence intensity (a.u.).

With “TTTTTCACCATTTTACCACTACTGCTGCCTCACGCAGTCACGGAGTCACCTAGTGCAG”, the binding signal was 8080 fluorescence intensity (a.u.).

In the case of “CAAACTCGCATCGTTTCCATTCCCGCCATTCCAACAAACTCGGAGTCACCTAGTGCAG”, the binding signal was 11300 fluorescence intensity (a.u.).

In the case of “TCCGTCCATCCTCACTATCATTAGTACTACTGGTTCTTCTCGGAGTCACCTAGTGCAG”, the binding signal is 12200 fluorescence intensity (a.u.).

Turning to “TTTATTCTCTGTTCCTCTTTTTTTCATATTCGTTTTTCACCGGAGTCACCTAGTGCAG”, the binding signal was 13200 fluorescence intensity (a.u.).

For “AATCTCTTATTATTCTCGCCATGTTTAGTTCCAAAGTTTTCGGAGTCACCTAGTGCAG”, the binding signal is 14100 fluorescence intensity (a.u.).

In the case of “CGATTCCGCAAGGCGCCGGCAACTCAACCCCAGCCAGATCCGGAGTCACCTAGTGCAG”, the binding signal was 9100 fluorescence intensity (a.u.).

“CAGGACCAGACCATCAGCGCCACATCCCGACACGAAACCGCGGAGTCACCTAGTGCAG”: the binding signal is 8490 fluorescence intensity (a.u.).

In the case of “GATAGGGTTAGGGATGGATAGGGTTTCCTTGAGGGTAGTTCGGAGTCACCTAGTGCAG”, the binding signal was 16400 fluorescence intensity (a.u.).

In the case of “AGTACCATTTGTTTCGCTGTGGATTTTATTTTATTATTAACGGAGTCACCTAGTGCAG”, the binding signal is 8530 fluorescence intensity (a.u.).

For “ATGATAGAGCTTGTTTCCGACCGTATTCGATTCGTTTTCACGGAGTCACCTAGTGCAG”, the binding signal is 8690 fluorescence intensity (a.u.).

As for “AGGGCGTGTGTTTCGCGTGGGTTTCGTGGTGGTTGCTGGGCGGAGTCACCTAGTGCAG”, the binding signal was 10900 fluorescence intensity (a.u.).

Take “GGTGATTTTAGCTGACGTAGCGCCTATATGTATGTTTTGACGGAGTCACCTAGTGCAG”: the binding signal is 8140 fluorescence intensity (a.u.).

For “AAGCTTTTTTTTTCTACATCTGAGACGTTCGCCGGAGATGCGGAGTCACCTAGTGCAG”, the binding signal is 8700 fluorescence intensity (a.u.).

Consider “AAATTCAAACTAGTTTCTACATAGCCTCTTTTCTCTATTTCGGAGTCACCTAGTGCAG”, for which the binding signal was 10900 fluorescence intensity (a.u.).

As to “ACTTATTCTGGGGCGGAGGCTAGAGGGTGTAGTGTAGGACCGGAGTCACCTAGTGCAG”, the binding signal is 13100 fluorescence intensity (a.u.).

For the sequence “TATTTCTAAATTGTATTTCTATATGGACTTTATTTTTCTTCGGAGTCACCTAGTGCAG”, the binding signal is 8830 fluorescence intensity (a.u.).

Consider “TAATTTGCATCGTCCGTTTGGTCTTGAGCGACGTCGCCAACGGAGTCACCTAGTGCAG”, for which the binding signal was 11000 fluorescence intensity (a.u.).

“GTAGCTTCTTCTGGCTTTTCTTCAGCAGCTCACGTAACCACGGAGTCACCTAGTGCAG”: the binding signal is 12400 fluorescence intensity (a.u.).

With “TTTGCTTTGTTGGAAAATATTCTCGTTTCCAATGTCCTTTCGGAGTCACCTAGTGCAG”, the binding signal was 8090 fluorescence intensity (a.u.).

As to “TTTGTCCGTTTGAGTTTATTTTTTATACGGTTGGTTCCTACGGAGTCACCTAGTGCAG”, the binding signal is 12300 fluorescence intensity (a.u.).

Consider “ACCCCAAGTAAAAGCCGCACACTCTCATCACTATCCCTCCCGGAGTCACCTAGTGCAG”, for which the binding signal is 8390 fluorescence intensity (a.u.).

With “TCTTGTCTTTCTCTTTGTTGCTTGATTGTCTTCCCCTGGACGGAGTCACCTAGTGCAG”, the binding signal is 8500 fluorescence intensity (a.u.).

Consider “ATCAGTTTTTATCGCTTTGATCACAATGATTCGGGTTATACGGAGTCACCTAGTGCAG”, for which the binding signal is 9710 fluorescence intensity (a.u.).

In the case of “GAAAAATGGGCTGAGTTGACTCTTAATAATTTGCTCTAGTCGGAGTCACCTAGTGCAG”, the binding signal was 8330 fluorescence intensity (a.u.).

For the sequence “CGGGCGGCGGCGGTCGGGAGGGGCTTGGCGATGATGGTGACGGAGTCACCTAGTGCAG”, the binding signal was 12200 fluorescence intensity (a.u.).

“ATATTCCATCTATTTTACGGTAAATATTTTTCTTTTTTTACGGAGTCACCTAGTGCAG”: the binding signal was 9080 fluorescence intensity (a.u.).
